Test results as given in the supplement of paper PMC12823440, “Inhibitors supercharge kinase turnover through native proteolytic circuits” (Nature, 2025).
Counter-ions that a name gives are not always drawn. Some of the results follow. Hit calls seldom repeat between salt and free forms of one compound.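 Kinases were expressed as nanoluciferase fusions in K562 cells and luminescence was read every 4 h between 2 and 18 h as percent of control, DMSO set to 100% and a positive control to 0%. A time point counts as decreased when the signal drops significantly (2 sigma). The hit call is the authors' own, does not follow from the count of time points alone, and its rule is not shown.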

By UniProt entry, the sequences of proteins in these tests, tags left out. Where a name states a change or a piece, a line headed by the entry shows the natural chain unless it says otherwise.
UniProt P36888, whole entry: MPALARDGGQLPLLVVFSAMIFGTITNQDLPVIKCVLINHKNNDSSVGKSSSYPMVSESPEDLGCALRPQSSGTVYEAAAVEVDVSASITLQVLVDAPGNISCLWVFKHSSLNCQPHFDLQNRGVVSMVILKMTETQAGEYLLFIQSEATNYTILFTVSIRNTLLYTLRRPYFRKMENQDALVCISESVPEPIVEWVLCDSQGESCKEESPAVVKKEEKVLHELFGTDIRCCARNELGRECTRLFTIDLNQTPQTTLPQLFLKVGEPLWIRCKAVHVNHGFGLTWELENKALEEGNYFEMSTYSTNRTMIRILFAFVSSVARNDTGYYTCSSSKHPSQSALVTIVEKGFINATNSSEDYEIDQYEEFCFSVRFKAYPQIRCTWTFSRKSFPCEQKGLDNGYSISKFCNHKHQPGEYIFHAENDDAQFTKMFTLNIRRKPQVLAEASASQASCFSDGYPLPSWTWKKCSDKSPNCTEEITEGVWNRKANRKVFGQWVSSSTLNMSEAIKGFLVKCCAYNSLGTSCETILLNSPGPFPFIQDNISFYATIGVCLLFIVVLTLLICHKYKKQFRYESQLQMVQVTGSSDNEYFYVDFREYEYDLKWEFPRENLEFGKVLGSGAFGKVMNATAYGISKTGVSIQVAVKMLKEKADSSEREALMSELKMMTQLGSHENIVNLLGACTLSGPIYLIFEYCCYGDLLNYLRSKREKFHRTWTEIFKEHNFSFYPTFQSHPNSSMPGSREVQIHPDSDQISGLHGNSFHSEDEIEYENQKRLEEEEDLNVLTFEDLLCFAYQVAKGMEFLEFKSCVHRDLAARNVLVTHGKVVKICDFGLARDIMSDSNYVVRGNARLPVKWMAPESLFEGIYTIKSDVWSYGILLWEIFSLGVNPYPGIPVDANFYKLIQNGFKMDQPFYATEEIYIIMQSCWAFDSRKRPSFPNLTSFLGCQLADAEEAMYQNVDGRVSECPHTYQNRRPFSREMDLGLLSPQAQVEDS
UniProt P06241, whole entry, looked up: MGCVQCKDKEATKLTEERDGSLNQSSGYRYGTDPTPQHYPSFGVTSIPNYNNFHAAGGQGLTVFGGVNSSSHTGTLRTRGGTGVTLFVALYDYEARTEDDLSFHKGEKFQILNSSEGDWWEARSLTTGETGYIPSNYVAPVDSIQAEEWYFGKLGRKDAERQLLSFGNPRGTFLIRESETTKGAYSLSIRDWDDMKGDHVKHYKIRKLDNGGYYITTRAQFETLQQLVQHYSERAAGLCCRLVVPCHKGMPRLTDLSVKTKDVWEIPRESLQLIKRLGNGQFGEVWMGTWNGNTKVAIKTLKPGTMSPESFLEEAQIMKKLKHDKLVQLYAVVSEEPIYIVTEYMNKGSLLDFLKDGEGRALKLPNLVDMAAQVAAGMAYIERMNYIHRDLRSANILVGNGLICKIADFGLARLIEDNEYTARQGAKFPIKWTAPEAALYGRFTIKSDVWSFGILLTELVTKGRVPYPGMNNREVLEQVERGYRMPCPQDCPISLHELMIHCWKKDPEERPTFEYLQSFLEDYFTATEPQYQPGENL
UniProt P49840: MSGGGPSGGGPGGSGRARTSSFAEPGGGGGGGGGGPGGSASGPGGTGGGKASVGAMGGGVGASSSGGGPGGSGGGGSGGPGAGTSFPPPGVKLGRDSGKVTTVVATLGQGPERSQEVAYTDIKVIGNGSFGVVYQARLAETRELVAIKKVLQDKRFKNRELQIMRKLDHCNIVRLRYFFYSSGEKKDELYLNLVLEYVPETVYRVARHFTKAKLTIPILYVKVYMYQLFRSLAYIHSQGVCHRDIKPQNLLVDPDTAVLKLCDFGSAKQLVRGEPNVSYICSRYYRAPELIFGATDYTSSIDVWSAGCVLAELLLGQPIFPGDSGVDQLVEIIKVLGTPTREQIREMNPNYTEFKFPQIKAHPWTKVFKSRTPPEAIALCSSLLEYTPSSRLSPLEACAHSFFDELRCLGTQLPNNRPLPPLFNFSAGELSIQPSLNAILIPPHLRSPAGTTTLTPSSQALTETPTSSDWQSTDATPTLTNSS
UniProt P14616: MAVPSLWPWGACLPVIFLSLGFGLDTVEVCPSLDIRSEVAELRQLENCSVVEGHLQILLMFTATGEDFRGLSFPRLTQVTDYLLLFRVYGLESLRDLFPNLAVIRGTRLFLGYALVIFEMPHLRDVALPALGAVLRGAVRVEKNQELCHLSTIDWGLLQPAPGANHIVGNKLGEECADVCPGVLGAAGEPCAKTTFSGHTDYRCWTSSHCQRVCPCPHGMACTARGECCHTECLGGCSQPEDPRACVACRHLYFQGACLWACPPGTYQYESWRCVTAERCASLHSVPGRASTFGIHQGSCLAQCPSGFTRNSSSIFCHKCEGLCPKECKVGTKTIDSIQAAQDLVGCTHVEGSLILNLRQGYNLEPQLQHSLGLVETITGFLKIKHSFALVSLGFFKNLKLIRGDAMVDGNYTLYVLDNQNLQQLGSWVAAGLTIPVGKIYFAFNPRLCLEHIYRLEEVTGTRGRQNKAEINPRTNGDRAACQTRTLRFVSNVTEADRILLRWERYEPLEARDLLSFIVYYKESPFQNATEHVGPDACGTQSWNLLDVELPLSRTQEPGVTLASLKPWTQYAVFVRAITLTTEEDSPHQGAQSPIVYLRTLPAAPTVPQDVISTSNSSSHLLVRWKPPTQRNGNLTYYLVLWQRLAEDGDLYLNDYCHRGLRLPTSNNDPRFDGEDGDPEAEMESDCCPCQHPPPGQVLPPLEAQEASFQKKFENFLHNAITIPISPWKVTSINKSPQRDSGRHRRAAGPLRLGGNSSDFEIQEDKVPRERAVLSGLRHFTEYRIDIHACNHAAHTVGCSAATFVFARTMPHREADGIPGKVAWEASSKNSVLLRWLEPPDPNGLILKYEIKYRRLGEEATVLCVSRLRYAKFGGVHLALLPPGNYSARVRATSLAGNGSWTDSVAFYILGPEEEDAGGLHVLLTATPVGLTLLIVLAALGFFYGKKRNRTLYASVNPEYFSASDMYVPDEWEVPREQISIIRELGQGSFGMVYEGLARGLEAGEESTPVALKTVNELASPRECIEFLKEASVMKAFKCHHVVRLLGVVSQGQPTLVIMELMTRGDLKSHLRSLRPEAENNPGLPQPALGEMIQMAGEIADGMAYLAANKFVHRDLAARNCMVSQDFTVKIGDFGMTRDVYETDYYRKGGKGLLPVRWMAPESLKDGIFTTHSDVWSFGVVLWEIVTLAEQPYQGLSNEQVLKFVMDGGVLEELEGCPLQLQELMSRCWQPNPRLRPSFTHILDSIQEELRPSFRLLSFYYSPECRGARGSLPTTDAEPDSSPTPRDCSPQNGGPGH
UniProt Q9Y616: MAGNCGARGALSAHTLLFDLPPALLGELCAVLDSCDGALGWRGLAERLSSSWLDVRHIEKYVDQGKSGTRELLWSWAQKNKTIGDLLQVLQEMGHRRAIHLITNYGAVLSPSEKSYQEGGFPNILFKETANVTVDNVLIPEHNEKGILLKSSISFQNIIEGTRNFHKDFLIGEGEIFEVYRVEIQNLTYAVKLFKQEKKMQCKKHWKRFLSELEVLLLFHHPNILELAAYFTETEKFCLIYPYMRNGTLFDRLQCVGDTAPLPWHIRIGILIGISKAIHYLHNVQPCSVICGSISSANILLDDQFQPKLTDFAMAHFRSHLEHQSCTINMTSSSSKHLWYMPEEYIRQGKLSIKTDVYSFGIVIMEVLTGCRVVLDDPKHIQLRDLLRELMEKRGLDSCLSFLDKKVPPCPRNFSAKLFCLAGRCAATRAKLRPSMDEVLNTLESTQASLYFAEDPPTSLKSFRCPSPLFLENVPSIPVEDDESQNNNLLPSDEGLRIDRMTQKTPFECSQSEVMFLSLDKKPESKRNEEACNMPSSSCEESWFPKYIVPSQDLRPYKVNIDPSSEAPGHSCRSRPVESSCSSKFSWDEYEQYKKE
UniProt P06239: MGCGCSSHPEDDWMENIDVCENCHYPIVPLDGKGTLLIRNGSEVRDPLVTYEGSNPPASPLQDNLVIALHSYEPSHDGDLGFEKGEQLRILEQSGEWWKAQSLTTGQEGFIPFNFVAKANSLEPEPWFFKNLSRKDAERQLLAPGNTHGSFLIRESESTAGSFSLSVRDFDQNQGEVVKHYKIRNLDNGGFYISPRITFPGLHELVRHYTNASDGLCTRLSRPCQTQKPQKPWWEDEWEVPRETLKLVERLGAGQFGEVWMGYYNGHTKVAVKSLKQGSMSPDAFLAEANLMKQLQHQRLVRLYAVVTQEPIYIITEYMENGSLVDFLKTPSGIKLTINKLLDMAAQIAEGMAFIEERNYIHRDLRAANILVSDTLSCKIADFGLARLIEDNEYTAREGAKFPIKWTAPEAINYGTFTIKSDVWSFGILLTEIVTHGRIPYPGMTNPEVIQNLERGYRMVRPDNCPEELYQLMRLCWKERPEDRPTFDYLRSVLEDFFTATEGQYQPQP
UniProt P53667: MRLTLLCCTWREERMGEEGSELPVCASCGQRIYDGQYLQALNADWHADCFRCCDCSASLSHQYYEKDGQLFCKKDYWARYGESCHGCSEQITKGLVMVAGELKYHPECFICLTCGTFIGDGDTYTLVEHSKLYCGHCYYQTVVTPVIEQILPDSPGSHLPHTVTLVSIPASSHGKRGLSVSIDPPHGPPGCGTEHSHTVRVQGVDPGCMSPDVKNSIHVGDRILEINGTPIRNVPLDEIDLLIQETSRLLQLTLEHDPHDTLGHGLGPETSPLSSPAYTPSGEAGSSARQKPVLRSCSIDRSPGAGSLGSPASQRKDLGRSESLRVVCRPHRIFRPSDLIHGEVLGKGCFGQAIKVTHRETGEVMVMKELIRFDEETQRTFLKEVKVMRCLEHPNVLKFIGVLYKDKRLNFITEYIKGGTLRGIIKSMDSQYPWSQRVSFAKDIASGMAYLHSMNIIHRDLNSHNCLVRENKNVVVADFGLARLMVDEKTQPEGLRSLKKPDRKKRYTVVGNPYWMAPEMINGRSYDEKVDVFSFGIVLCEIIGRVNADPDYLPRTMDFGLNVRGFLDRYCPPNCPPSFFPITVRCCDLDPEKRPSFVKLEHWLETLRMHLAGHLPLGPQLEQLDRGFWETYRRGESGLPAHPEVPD
UniProt P53671: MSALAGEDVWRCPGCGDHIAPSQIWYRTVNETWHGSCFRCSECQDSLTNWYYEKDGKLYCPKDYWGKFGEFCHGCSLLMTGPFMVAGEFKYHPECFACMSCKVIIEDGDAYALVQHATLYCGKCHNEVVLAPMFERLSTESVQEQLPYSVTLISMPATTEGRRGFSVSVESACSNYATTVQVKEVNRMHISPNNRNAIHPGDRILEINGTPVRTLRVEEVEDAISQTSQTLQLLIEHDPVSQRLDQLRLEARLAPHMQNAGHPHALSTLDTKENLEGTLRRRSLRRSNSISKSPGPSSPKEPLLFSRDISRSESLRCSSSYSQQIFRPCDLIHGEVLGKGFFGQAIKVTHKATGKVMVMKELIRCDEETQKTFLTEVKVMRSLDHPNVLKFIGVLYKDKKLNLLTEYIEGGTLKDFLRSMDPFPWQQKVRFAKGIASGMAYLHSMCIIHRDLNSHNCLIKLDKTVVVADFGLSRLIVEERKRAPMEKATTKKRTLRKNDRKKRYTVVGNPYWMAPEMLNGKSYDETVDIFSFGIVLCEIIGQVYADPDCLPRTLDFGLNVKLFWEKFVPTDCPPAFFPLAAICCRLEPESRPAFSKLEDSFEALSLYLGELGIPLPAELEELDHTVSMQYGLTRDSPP

Assays:
Experiment in all cases: number of time points (of 5) at which kinase-Nluc abundance scored as decreased, DMSO-normalised (count); higher = more persistent destabilization
Settings in all cases: K562; 2-18 h
[1] = biological target: FLT3 (UniProt P36888)
[2] = biological target: FYN (UniProt P06241)
[3] = biological target: GSK3A (UniProt P49840)
[4] = biological target: HER2 (UniProt P04626)
[5] = biological target: INSRR (UniProt P14616)
[6] = biological target: IRAK3 (UniProt Q9Y616)
[7] = biological target: JAK1 (UniProt P23458)
[8] = biological target: LCK (UniProt P06239)
[9] = biological target: LIMK1 (UniProt P53667)
[10] = biological target: LIMK2 (UniProt P53671)

| Compound | number of time points [1] | number of time points [2] | number of time points [3] | number of time points [4] | number of time points [5] | number of time points [6] | number of time points [7] | number of time points [8] | number of time points [9] | number of time points [10] |
| --- | --- | --- | --- | --- | --- | --- | --- | --- | --- | --- |
| Cc1cccc(-c2[nH]ncc2-c2ccc(F)c(-c3cnn(CCO)c3)c2)n1 (10 µM) | 0 | 0 | 0 | 0 | 0 | 0 | 0 | 0 | 0 | 0 |
| Cc1ccc(C(=O)Nc2ccc(Oc3cc4cnn(C)c4cc3-c3cn[nH]c3)c(F)c2)c(=O)n1-c1ccc(F)cc1 [Merestinib] (2.5 µM) | 0 | 0 | 0 | 0 | 0 | 0 | 0 | 0 | 4 | 0 |
| COc1cc(Nc2ncc(F)c(Nc3ccc4c(n3)N(COP(=O)(O)O)C(=O)C(C)(C)O4)n2)cc(OC)c1OC [Fostamatinib Disodium] (10 µM) | 0 | 1 | 4 | 0 | 0 | 0 | 0 | 0 | 3 | 0 |
| O=C(CSC1=NCCN1)NC1CCCCCC1 [ICCB-19 (hydrochloride)] (2.5 µM) | 0 | 0 | 0 | 0 | 0 | 0 | 0 | 0 | 0 | 0 |
| c1cc(-c2c[nH]c3nccc(N4CCC[C@@]5(CCCCN5)C4)c23)ncn1 (10 µM) | 0 | 0 | 0 | 0 | 0 | 0 | 0 | 0 | 0 | 0 |
| Cn1cc(-c2ccc3c(c2)CCN3C(=O)Cc2cccc(C(F)(F)F)c2)c2c(N)ncnc21 (2.5 µM) | 0 | 0 | 0 | 0 | 0 | 0 | 0 | 0 | 0 | 0 |
| C=CC(=O)Nc1cc(Nc2ncc(Cl)c(-c3c[nH]c4ccccc34)n2)c(OC)cc1N(C)CCN(C)C [Mutant EGFR inhibitor] (2.5 µM) | 0 | 0 | 0 | 4 | 2 | 1 | 0 | 0 | 4 | 2 |
| O=c1cc(CN2CCOCC2)occ1OCCCCCSc1ccnc2cc(C(F)(F)F)ccc12 (10 µM) | 0 | 0 | 0 | 0 | 0 | 0 | 0 | 0 | 0 | 0 |
| COc1ccc(-c2ccc3c(N4CCOCC4)nc(N4C[C@@H](C)O[C@@H](C)C4)nc3n2)cc1CO (2.5 µM) | 0 | 0 | 0 | 0 | 0 | 0 | 0 | 0 | 0 | 0 |

As entered above.
number of time points [9] with O=C(CSC1=NCCN1)NC1CCCCCC1 [ICCB-19 (hydrochloride)] (2.5 µM) reads 0
number of time points [6] with Cc1cccc(-c2[nH]ncc2-c2ccc(F)c(-c3cnn(CCO)c3)c2)n1 (10 µM) reads 0
